Reference: PubChem BioAssay AID1224830 (NIAID, 2016)

Aim: 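Regulators of TLR4 signalling towards TNF-alpha in macrophage-like cells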 (primary screen)
Cell system: human THP-1 monocytic leukaemia cells, TNF dual-luciferase reporter clone, PMA-differentiated to macrophage-like cells
Knock-down reagent: siRNA pool against human genes, 50 nM
Duration: LPS for 4 h, given about 3 days after siRNA transfection
Treatment: bacterial LPS (TLR4 ligand), 10 ng/ml
Read-out: 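Ratio of firefly to renilla light, scaled to the plate median and expressed as a robust z-score per replicate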
Scale: TNF reporter robust z-score: higher = stronger TNF reporter response to LPS
Rule for the call: 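a well is active when its z-score exceeds 2.8 or falls below -1.5; control wells carry no call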
Here is a random part of about 18,000 deposited reagents. In the full data, about 2,900 (16%) got an active call. 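Calls are made per well; low scores hint the gene aids the LPS response, high scores that it dampens it.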 Repeated entries: four replicate wells of each siRNA pool.

FYB2 — TNF reporter robust z-score: 0.69; call: inactive
FYB2 — TNF reporter robust z-score: 0.08; call: inactive
FYB2 — TNF reporter robust z-score: 0.97; call: inactive
FYB2 — TNF reporter robust z-score: -0.47; call: inactive
SCN4B — TNF reporter robust z-score: -0.51; call: inactive
SCN4B — TNF reporter robust z-score: 0.27; call: inactive
SCN4B — TNF reporter robust z-score: -1.76; call: active
SCN4B — TNF reporter robust z-score: -0.35; call: inactive
CYB5D1 — TNF reporter robust z-score: -0.88; call: inactive
CYB5D1 — TNF reporter robust z-score: -0.34; call: inactive
CYB5D1 — TNF reporter robust z-score: -0.09; call: inactive
CYB5D1 — TNF reporter robust z-score: 0.16; call: inactive
STX8 — TNF reporter robust z-score: -1.23; call: inactive
STX8 — TNF reporter robust z-score: -1.09; call: inactive
STX8 — TNF reporter robust z-score: -0.29; call: inactive
STX8 — TNF reporter robust z-score: -0.11; call: inactive
SNTB1 — TNF reporter robust z-score: 0.39; call: inactive
SNTB1 — TNF reporter robust z-score: -0.76; call: inactive
SNTB1 — TNF reporter robust z-score: 0.9; call: inactive
SNTB1 — TNF reporter robust z-score: 0.58; call: inactive
SERPINA11 — TNF reporter robust z-score: 0.75; call: inactive
SERPINA11 — TNF reporter robust z-score: 1.02; call: inactive
SERPINA11 — TNF reporter robust z-score: 0.81; call: inactive
SERPINA11 — TNF reporter robust z-score: -0.21; call: inactive
SCAMP2 — TNF reporter robust z-score: 1.03; call: inactive
SCAMP2 — TNF reporter robust z-score: 2.87; call: active
SCAMP2 — TNF reporter robust z-score: 2.79; call: inactive
SCAMP2 — TNF reporter robust z-score: 1.58; call: inactive
ADIPOQ — TNF reporter robust z-score: 2.31; call: inactive
ADIPOQ — TNF reporter robust z-score: 1.9; call: inactive
ADIPOQ — TNF reporter robust z-score: 1.53; call: inactive

Laid out differently: results already given.
gene	TNF reporter robust z-score	call
SNTB1	0.58	inactive
SERPINA11	0.75	inactive
SERPINA11	1.02	inactive
SERPINA11	0.81	inactive

The list goes on.
SLC25A10 — TNF reporter robust z-score: 3.05; call: active
SLC25A10 — TNF reporter robust z-score: -0.99; call: inactive
SLC25A10 — TNF reporter robust z-score: -1.24; call: inactive
SLC25A10 — TNF reporter robust z-score: -1.6; call: active
DHRS1 — TNF reporter robust z-score: 0.34; call: inactive
DHRS1 — TNF reporter robust z-score: 0.96; call: inactive
DHRS1 — TNF reporter robust z-score: 0.68; call: inactive
DHRS1 — TNF reporter robust z-score: 4; call: active
SLC6A18 — TNF reporter robust z-score: -0.63; call: inactive
SLC6A18 — TNF reporter robust z-score: -0.25; call: inactive
SLC6A18 — TNF reporter robust z-score: -1.09; call: inactive
SLC6A18 — TNF reporter robust z-score: -0.27; call: inactive
NHLRC3 — TNF reporter robust z-score: 5.34; call: active
NHLRC3 — TNF reporter robust z-score: 1.04; call: inactive
NHLRC3 — TNF reporter robust z-score: 0.17; call: inactive
NHLRC3 — TNF reporter robust z-score: -0.57; call: inactive
